Measurements as given in PubChem BioAssay (Tox21).
Where “and” joins values, the source holds several entries; their conditions need not be identical. Identical values can stand only once. The inconclusive results got no clear call from the source; some entries with a clear call stand among them for comparison. For some of these results: Potencies beside an inconclusive call are fits to weak or partial responses and may not hold up. Calls of active or inactive are those of the source. Unless noted, calls come from the whole dose curve.

Amino acid sequences for entries named in this document (tags omitted). A change or cut given only in a name is not applied to a line headed by its entry.
UniProt P14416, whole entry, looked up: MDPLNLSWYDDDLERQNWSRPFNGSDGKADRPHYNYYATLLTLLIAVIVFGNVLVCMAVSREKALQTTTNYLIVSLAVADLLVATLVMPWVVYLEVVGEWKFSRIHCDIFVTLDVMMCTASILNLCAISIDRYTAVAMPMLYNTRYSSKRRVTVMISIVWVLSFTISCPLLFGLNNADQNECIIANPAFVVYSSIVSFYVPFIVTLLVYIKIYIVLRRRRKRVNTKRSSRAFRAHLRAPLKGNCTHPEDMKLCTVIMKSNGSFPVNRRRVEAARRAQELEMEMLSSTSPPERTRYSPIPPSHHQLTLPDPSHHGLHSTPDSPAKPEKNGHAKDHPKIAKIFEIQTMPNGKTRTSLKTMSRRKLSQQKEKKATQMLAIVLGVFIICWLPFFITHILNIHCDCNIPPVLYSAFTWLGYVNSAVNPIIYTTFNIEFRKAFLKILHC
UniProt P28223, whole entry, looked up: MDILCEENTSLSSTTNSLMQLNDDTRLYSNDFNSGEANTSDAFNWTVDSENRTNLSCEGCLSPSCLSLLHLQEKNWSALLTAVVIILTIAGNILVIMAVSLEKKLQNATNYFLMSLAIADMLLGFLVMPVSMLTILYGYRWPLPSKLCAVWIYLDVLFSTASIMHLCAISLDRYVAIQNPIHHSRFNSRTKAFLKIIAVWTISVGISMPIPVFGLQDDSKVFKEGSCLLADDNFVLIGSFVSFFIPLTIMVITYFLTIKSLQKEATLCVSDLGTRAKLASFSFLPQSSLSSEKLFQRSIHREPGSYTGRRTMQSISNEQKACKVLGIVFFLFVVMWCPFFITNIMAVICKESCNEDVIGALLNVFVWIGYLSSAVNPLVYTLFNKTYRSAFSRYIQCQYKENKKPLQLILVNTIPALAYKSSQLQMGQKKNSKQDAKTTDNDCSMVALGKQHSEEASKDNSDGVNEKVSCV
UniProt P11229: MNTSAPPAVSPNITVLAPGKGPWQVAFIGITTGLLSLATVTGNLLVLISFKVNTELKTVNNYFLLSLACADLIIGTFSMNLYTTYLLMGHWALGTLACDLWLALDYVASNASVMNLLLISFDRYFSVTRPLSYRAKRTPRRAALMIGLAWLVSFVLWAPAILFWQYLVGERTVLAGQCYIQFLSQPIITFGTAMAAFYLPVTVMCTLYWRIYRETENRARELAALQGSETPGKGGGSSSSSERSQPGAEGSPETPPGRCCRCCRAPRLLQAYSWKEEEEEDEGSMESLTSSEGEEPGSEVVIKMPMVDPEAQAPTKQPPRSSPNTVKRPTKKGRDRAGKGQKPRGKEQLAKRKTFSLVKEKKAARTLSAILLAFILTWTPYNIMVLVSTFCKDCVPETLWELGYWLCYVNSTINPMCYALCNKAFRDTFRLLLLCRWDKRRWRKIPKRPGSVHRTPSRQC

Columns and labels:
[1] = p53 small molecule agonists, cell-based qHTS assay with human liver microsomes (AID 1963577); settings: HCT-116 p53RE-bla with human liver microsomes, ratio, 16 h; activation: at 66 µM (top of the series) unless noted; note: potency is the fitted concentration of half-maximal effect;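 for activation: p53 response element beta-lactamase reporter cells with liver microsomes plus NADPH; % is set by controls: 0 for no effect and ±100 for the full control effect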
In short: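 Compounds act here after metabolic activation: human liver microsomes and NADPH, both at 0.5 mg/mL final, were co-added to p53RE-bla cells. Incubation ran 16 h at 37 C, followed by LiveBLAzer detection.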

[2] = p53 small molecule agonists, cell-based qHTS assay (AID 1963582; active = well fitted activation curve with a large enough effect in the signal ratio in the repeat runs, not every such curve was filed as active; inconclusive = weak or mixed curves; the % refers to the signal ratio; note: potency is the fitted concentration of half-maximal effect); settings: HCT-116 p53RE-bla reporter, beta-lactamase FRET ratio, 16 h; activation: at 66 µM (top of the series) unless noted
In short: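 p53RE-bla beta-lactamase reporter cells rested 5 h at 37 C/5% CO2, then received compounds in DMSO by pin transfer and were incubated 16 h at 37 C. LiveBLAzer B/G FRET substrate was loaded for 2 h at room temperature before fluorescence reading.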

[3] = cAMP Responsive Elements (CRE) small molecule antagonists, cell-based qHTS assay (AID 1963591; active = well fitted inhibition curve with a large enough effect in the signal ratio in the repeat runs, not every such curve was filed as active; inconclusive = weak or mixed curves, or effect the other way; the % refers to the signal ratio; note: potency is the fitted concentration of half-maximal effect); settings: CRE-bla HEK293T, beta-lactamase FRET ratio; activity change, negative = inhibition: at 92.4 µM (top of the series) unless noted
In short: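 CRE-bla HEK293T cells were plated 18 h at 37 °C/5% CO2, pinned with compound in DMSO, then stimulated with NKH477 at 0.25 uM final for 3 h. LiveBLAzer B/G FRET substrate was added and plates incubated 2 h at room temperature.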

[4] = biological target: Beta-2 adrenergic receptor (Homo sapiens) (UniProt P07550); assay: Adrenergic beta2 receptor (ADRB2) small molecule agonists, cell-based qHTS assay (AID 1963593); settings: CHO-ADRB2 cells, cAMP HTRF, 30 min; note: potency is the fitted concentration of half-maximal effect;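 for activation: CHO cells stably overexpressing human ADRB2; % is set by controls: 0 for no effect and ±100 for the full control effect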
In short: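 CHO cells stably over-expressing ADRB2 were plated overnight at 37C, then dosed with compounds plus a stimulation mix containing 100uM IBMX and 25uM Ro-20-1724 for 0.5hr at room temperature. cAMP was measured by HTRF competition, 1hr.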

[5] = biological target: D(2) dopamine receptor (Homo sapiens) (UniProt P14416); assay: Dopamine D2 receptor (DRD2) small molecule agonists, cell-based qHTS assay (AID 1963594); settings: HEK293-DRD2 cAMP HTRF, agonist mode, 30 min; activation: at 92.4 µM (top of the series) unless noted; note: nearly all actives have a fitted effect of over 35% in size; note: potency is the fitted concentration of half-maximal effect; for activation: % is set by controls: 0 for no effect and ±100 for the full control effect
In short: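 HEK293 cells stably expressing human DRD2, pre-treated with PDE inhibitor Ro20-1724 (0.1 mM final) and compound 10 min at room temperature, then stimulated with NKH477 (200nM […]) for 30 min. cAMP read by HTRF (665/620 nm).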

[6] = biological target: Beta-2 adrenergic receptor (Homo sapiens) (UniProt P07550); assay: Adrenergic beta2 receptor (ADRB2) small molecule antagonists, cell-based qHTS assay (AID 1963592); settings: CHO-ADRB2 cells, isoproterenol-stimulated cAMP HTRF ratio, 0.5 h; activity change, negative = inhibition: at 92.4 µM (top of the series) unless noted; note: % is set by controls: 0 for no effect and ±100 for the full control effect; nearly all actives have a fitted effect of over 50% in size
In short: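 Cells (CHO, stable ADRB2 overexpression) incubated 18-20hr at 37C; compounds added from DMSO; agonist mix (1nM isoproterenol, 100uM IBMX, 25uM Ro-20-1724) added; 0.5hr RT; d2-cAMP and anti-cAMP-cryptate added; 1hr RT; 665/615 nm read.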

[7] = biological target: 5-hydroxytryptamine receptor 2A (Homo sapiens) (UniProt P28223); assay: 5-hydroxytryptamine receptor 2A (HTR2A) small molecule antagonists, cell-based qHTS assay (AID 1963586); note: potency is the fitted concentration of half-maximal effect; nearly all actives have a fitted effect of over 45% in size
In short: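 Antagonist-mode intracellular calcium assay: DOI (4 nM) added after 5 min compound pre-incubation at room temperature to dye-loaded HTR2A-CHO cells. Fluorescence followed for 3 min, sampled every second.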

[8] = cAMP Responsive Elements (CRE) small molecule agonists, cell-based qHTS assay (AID 1963590); settings: CRE-bla HEK293T, beta-lactamase FRET ratio, 3 h; activation: at 92.4 µM (top of the series) unless noted; note: potency is the fitted concentration of half-maximal effect
In short: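 CRE-bla HEK 293T cells in DMEM with 10% dialyzed FBS, NEAA, pyruvate and 25 mM HEPES were plated 18 h at 37 C/5% CO2, then exposed to compounds in DMSO for 3 h before LiveBLAzer B/G FRET substrate addition.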

[9] = biological target: 5-hydroxytryptamine receptor 2A (Homo sapiens) (UniProt P28223); assay: 5-hydroxytryptamine receptor 2A (HTR2A) small molecule agonists, cell-based qHTS assay (AID 1963587); settings: HTR2A-CHO cells, calcium flux fluorescence, agonist mode; activation: at 76.8 µM (top of the series); note: potency is the fitted concentration of half-maximal effect; nearly all actives have a fitted effect of over 30% in size
In short: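 CHO cells stably expressing human HTR2A, plated 18 h, loaded with calcium dye 1 h at 37 C. Agonist mode: compounds added and intracellular calcium fluorescence recorded kinetically for 2 min at 1 sec intervals.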

[10] = biological target: Muscarinic acetylcholine receptor M1 (Homo sapiens) (UniProt P11229); assay: Cholinergic receptor muscarinic 1 (CHRM1) small molecule antagonists, cell-based qHTS assay (AID 1963588); note: potency is the fitted concentration of half-maximal effect; nearly all actives have a fitted effect of over 40% in size
In short: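 CHRM1-CHO calcium-flux assay, antagonist mode. Cells were seeded 18 h, dye-loaded 1 h at 37 C and given compound for 5 min at RT, then acetylcholine was added at 50nM. FDSS fluorescence was read 3 min; 15 concentrations, three runs.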

[11] = biological target: D(2) dopamine receptor (Homo sapiens) (UniProt P14416); assay: Dopamine D2 receptor (DRD2) small molecule antagonists, cell-based qHTS assay (AID 1963595; active = well fitted inhibition curve with a large enough effect in the signal ratio in the repeat runs, with a control signal flat; inconclusive = weak or mixed curves, or effect the other way; the % refers to the signal ratio; note: % is set by controls: 0 for no effect and ±100 for the full control effect); settings: HEK293-DRD2 cAMP HTRF antagonist mode; activity change, negative = inhibition: at 92.4 µM (top of the series) unless noted
In short: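 HEK293 cells stably expressing DRD2 were preincubated with 0.1 mM Ro20-1724, then with compound for 10 min at room temperature. Cells were stimulated with 200 nM NKH477 plus 12 nM quinpirole for 30 min, and cAMP was read by HTRF.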

[12] = activation: at 92.4 µM (top of the series) unless noted

Nc1ccc(Cc2ccc(N)cc2)cc1
Potency [1]: inconclusive: 45.8 µM [rising, single point]
Potency [2]: inconclusive: 51.3 µM [rising, single point]
Potency [3]: inconclusive: 19.3 µM [activator, full curve]
activation [4, 12]: inconclusive: 2.86%
activation ([4]; at 92.4 µM (top of the series)): inactive: 2.22%
Potency [5]: inactive

C#C[C@]1(O)C=C[C@H]2[C@@H]3CCC4=CC(=O)CC[C@@H]4[C@H]3CC[C@@]21CC
activation [1]: inconclusive: 0.311% [at 30.3 µM]
activity change, negative = inhibition [3]: inconclusive: 15.9% [at 42.4 µM]
activation [4, 12]: inconclusive: 17.6% [at 42.5 µM]

O=P(O)(O)CCCl
Potency [1]: inconclusive: 5.87 µM [fluorescent, partial curve] and inconclusive: 722 nM [fluorescent, full curve]
Potency [2]: inactive
Potency [3]: inactive
Potency [6]: inactive
Potency [4, 12]: inconclusive: 6.98 µM [inhibitor, single point] and inactive

COc1cc(OC)nc(NC(=O)NS(=O)(=O)c2ncccc2OCC(F)(F)F)n1
Potency [1]: inconclusive: 43.5 µM [fluorescent]
Potency [7]: inconclusive: 0.0711 µM [inhibitor, full curve, poor fit]
Potency [8]: inactive
Potency [3]: inactive
Potency [4, 12]: inactive
Potency [5]: inactive

COc1cc(CC(C)N)cc(OC)c1OC (centres undefined)
activation [1]: inconclusive: 6.51%
Potency [7]: active: 0.228 µM
Potency [9]: active: 265 nM
activity change, negative = inhibition [6]: inconclusive: -34.5%
Potency [4, 12]: inconclusive: 3.72 µM [inhibitor, full curve, poor fit]
Potency [5]: inconclusive: 66.1 µM [rising, partial curve, poor fit]

CCOC(C(=O)OCCN(C)C)(c1ccccc1)c1ccccc1
Potency [1]: inconclusive: 19.9 µM
Potency [10]: active: 2.31 µM
Potency [8]: inactive
Potency [3]: inactive
activation [4, 12]: inconclusive: 16.5% [at 42.5 µM]
activation [5]: inconclusive: -25.7% [at 42.5 µM]
Potency [11]: inactive

CC1(C)CC(=O)CC(C)(C)N1[O]
Potency [1]: inactive
Potency [8]: inactive

Clc1ccc(-c2ccccc2)cc1
Potency [1]: inconclusive: 36.3 µM [fluorescent, partial curve, poor fit]
Potency [8]: inactive
activation [4, 12]: inconclusive: 19.6%
Potency [11]: inactive

CCCCS(=O)(=O)Cl
Potency [1]: inactive
Potency [2]: inactive
Potency [4, 12]: inactive

N#C/C(N)=C(/N)C#N
Potency [1]: inconclusive: 44.4 µM [fluorescent]
Potency [4, 12]: inactive

O=c1ccc(=O)[nH][nH]1
Potency [1]: inconclusive: 54.3 µM [fluorescent, single point]
Potency [8]: inactive

C1CCC2CCCCC2C1 (centres undefined)
Potency [1]: inactive
activation [4, 12]: inconclusive: 4.69%

NCC(O)c1ccc(O)cc1 (centres undefined)
Potency [1]: inactive
Potency [7]: inconclusive: 18.3 µM [inhibitor, partial curve, poor fit]
Potency [9]: inconclusive: 54.1 µM [activator, partial curve, poor fit] and inconclusive: 13.4 µM [activator, partial curve, poor fit]
Potency [4, 12]: inconclusive: 2.69 µM [inhibitor, single point]

CCN
Potency [1]: inactive
Potency [8]: inactive
Potency [3]: inactive
activation [4, 12]: inconclusive: 17%

Cc1c(F)c(F)c(COC(=O)C2C(/C=C(\Cl)C(F)(F)F)C2(C)C)c(F)c1F (centres undefined)
Potency [1]: inconclusive: 36.3 µM [fluorescent, partial curve]
Potency [2]: inconclusive: 18.2 µM [rising, single point]
Potency [8]: inconclusive: 24.3 µM [rising, full curve, poor fit]
Potency [5]: inconclusive: 30.6 µM [falling, partial curve, poor fit]

C=CCN1C[C@H](C)N([C@H](c2ccc(C(=O)N(CC)CC)cc2)c2cccc(OC)c2)C[C@H]1C
Potency [1]: inactive
Potency [2]: inactive
Potency [10]: active: 2.59 µM
Potency [8]: inactive
Potency [4, 12]: inconclusive: 9.44 µM [inhibitor, partial curve, poor fit]

CCOc1cc(OP(=S)(OC)OC)nc(CC)n1
Potency [1]: inconclusive: 16.2 µM [activator, full curve]
Potency [8]: inactive
Potency [4, 12]: inactive

CC(C)CBr
activation [1]: inconclusive: 16.1%
Potency [8]: inactive
Potency [4, 12]: inconclusive: 1.22 µM [inhibitor, full curve, poor fit]
Potency [5]: inactive

Cc1ccc(O)c(C)c1
Potency [1]: inconclusive: 33.8 µM [fluorescent, partial curve]
Potency [7]: inconclusive: 49.2 µM [inhibitor, single point]
Potency [4, 12]: inactive

CC(C)N(C(=O)COc1nnc(C(F)(F)F)s1)c1ccc(F)cc1
Potency [1]: inconclusive: 16.2 µM [falling, partial curve, poor fit]
activity change, negative = inhibition [3]: inconclusive: -5.3%
Potency [4, 12]: inconclusive: 13.7 µM [inhibitor, single point]
Potency [5]: inactive
